## Primary screen of a compound library

Amino acid sequences for entries named in this document (tags omitted). Residues count along the entry.
UniProt Q8IDJ8, 1-583: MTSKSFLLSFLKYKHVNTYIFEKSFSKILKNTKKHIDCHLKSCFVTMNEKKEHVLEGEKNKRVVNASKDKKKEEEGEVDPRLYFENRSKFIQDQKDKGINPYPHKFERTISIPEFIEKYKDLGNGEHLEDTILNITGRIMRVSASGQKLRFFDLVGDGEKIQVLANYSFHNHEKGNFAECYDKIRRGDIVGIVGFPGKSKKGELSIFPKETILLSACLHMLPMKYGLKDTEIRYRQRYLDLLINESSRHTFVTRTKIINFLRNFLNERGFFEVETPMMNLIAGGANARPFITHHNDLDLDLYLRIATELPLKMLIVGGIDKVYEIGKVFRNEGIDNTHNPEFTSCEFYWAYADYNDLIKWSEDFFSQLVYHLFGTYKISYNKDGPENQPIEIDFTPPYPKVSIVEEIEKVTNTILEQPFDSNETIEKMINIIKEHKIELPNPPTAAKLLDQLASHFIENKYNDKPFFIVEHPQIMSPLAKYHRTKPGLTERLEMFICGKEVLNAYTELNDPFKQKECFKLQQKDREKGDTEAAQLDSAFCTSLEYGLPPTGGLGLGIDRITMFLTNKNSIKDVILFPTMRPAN

The values are deposited in ChEMBL (CHEMBL3988442, “University of Dundee, Small-Polar-MMV Screening Library” (2021)).

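Lysine-tRNA ligase, Plasmodium falciparum 3D7 (UniProt Q8IDJ8). Enzyme assay of the cytosolic lysyl-tRNA synthetase in 384-well plates, read by luminescence. Concentration: 30 µM. Higher reads as stronger inhibition, judged from the few compounds that gave an IC50. Size under these conditions: about 69,000 compounds, about 49 of them at 50% or above in at least one test.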

Values are the deposited “Percent Effect”, in %. How 0% and 100% were set is not recorded. Most values in the screen are low, and negative values occur. The compounds are a random part of those screened.

structure: CN(C)c1nc2c(c(NCc3nnc4n3CCCCC4)n1)CCNC2
percent effect: 4.564

structure: CCOCC(=O)N1CCC2(CC1)COC(COCc1ccccn1)C2 (configuration not stated)
percent effect: -2.189

structure: CNC(=O)c1cccc(NC(=O)CN2CCN(S(C)(=O)=O)CC2)c1
percent effect: 0.8558

structure: COCCN1C[C@H]2CC[C@@H]1CN(Cc1ccc3ccccc3n1)C2
percent effect: 3.132

structure: CCNc1cc2c(nn1)CCN(C(=O)c1ccc(NC3CC3)nc1)C2
percent effect: 2.753

structure: Cc1[nH]c(-c2ccccc2)nc1C(=O)N1CCc2[nH]cnc2C1C(=O)O (configuration not stated)
percent effect: 7.296

structure: N#Cc1ccnc(N2CCN(CC(O)c3cccc(F)c3)CC2)c1 (configuration not stated)
percent effect: 7.414

structure: CCOc1cccc(CNC2CCCN(Cc3noc(C)n3)C2)c1 (configuration not stated)
percent effect: 1.017

structure: O=C(CSCC1CC1)N1CCCC(c2nccn2Cc2cccnc2)C1 (configuration not stated)
percent effect: 2.838

structure: CCC(C)(CNC(=O)Nc1nncs1)N1CCOCC1 (configuration not stated)
percent effect: -1.069

structure: COc1ccc2c(c1)CCCN2C(=O)CN1CCOC(CN(C)C)C1 (configuration not stated)
percent effect: 4.661

structure: CCOc1ccc(CN(CCOC)C(=O)c2ccncc2Cl)cc1
percent effect: 5.041

structure: CC(C)(C)c1cnc(CN2CCC(CO)CC2)o1
percent effect: 0.3119

structure: CCc1cc(N2CCCC(c3noc(CC)n3)C2)ncn1 (configuration not stated)
percent effect: -1.462

structure: Cc1cc(C)n(-c2ccc(N3CCC(O)CC3)nc2)n1
percent effect: 2.478

structure: CCC(=O)N1CCCN(C(=O)c2cc(C)cc(Br)c2O)CC1
percent effect: 1.481

structure: CN(C(=O)c1ccccc1F)[C@@H]1CC[C@@H](O)[C@@H]1O
percent effect: 2.63

structure: CCn1nc(C)c(CNC(=O)NCC(C)(O)c2ccsc2)c1C (configuration not stated)
percent effect: 4.826

structure: CC1CCCN(CC(=O)N2CCC(c3ncc4c(n3)CCNC4)CC2)C1 (configuration not stated)
percent effect: -3.73

structure: CS(=O)(=O)N1CCCn2nc(CNc3ncccn3)cc2C1
percent effect: 6.052

structure: CN1CCN(C[C@H]2CC[C@@H](Cc3ccc4c(c3)OCO4)O2)CC1
percent effect: -1.692

structure: CC(C)c1nc2n(n1)CC(NCc1nnnn1C1CC1)CC2 (configuration not stated)
percent effect: 4.527

structure: O=C(O)c1c(-c2cncnc2)ncc2c1CCN(Cc1ccco1)C2
percent effect: 2.025

structure: CC1=C(c2ccc(C(C)C)cc2)S(=O)(=O)N=C1N1CCc2ccccc21
percent effect: 1.268

structure: COCCCN1CC2(CCN(C(=O)Cc3csc(C)n3)CC2)CC1=O
percent effect: 3.985

structure: Cc1nccn1-c1ccc(CNC(=O)c2ccc(O)nc2)cn1
percent effect: 8.938

structure: CC(C)n1cc(CN2CCCN(C(=O)C3CCOC3)CC2)cn1 (configuration not stated)
percent effect: -3.071

structure: CC(C)Cn1cncc1CNC(=O)c1cccc(CC2CCNCC2)c1
percent effect: -4.837

structure: CC[C@H](CO)NC(=O)c1coc(COc2ccccc2F)n1
percent effect: 8.615

structure: CCn1cc2c(n1)C(COCC1CC1)CN(c1ccc(C)nn1)C2 (configuration not stated)
percent effect: 2.497

structure: Cc1cc(NCCOCCS(C)(=O)=O)nc2ccccc12
percent effect: 0.8675

structure: CCn1c(C2CCN(Cc3cc(C)n(NC(C)=O)c3C)CC2)n[nH]c1=O
percent effect: 6.829

structure: Cc1nc(CN2CCCC(NCc3cccc4ccccc34)C2)no1 (configuration not stated)
percent effect: -3.334

structure: Cc1ccc(NC(=O)CNC(C)CN2CCOCC2)c(F)c1 (configuration not stated)
percent effect: 4.709

structure: Cn1cnnc1-c1ccnc(NCc2ccc(Br)cc2)c1
percent effect: 12.45

structure: Cc1ccc(C(C)(O)CNC(=O)c2scnc2C)o1 (configuration not stated)
percent effect: 1.434

structure: COc1ccccc1C(=O)N1Cc2cc(C)ccc2OCC1CN(C)C (configuration not stated)
percent effect: 7.119

structure: CCC1CN(C(=O)c2cnc(-c3ccccc3)s2)CCO1 (configuration not stated)
percent effect: -3.802

structure: O=C(c1ccco1)N1CCC[C@]2(C[C@H](Oc3ncccc3F)CO2)C1
percent effect: 2.444

structure: Cc1cc(C(=O)N2CCCC(c3ccc(C(=O)O)cc3)C2)c(C)o1 (configuration not stated)
percent effect: -3.051

structure: O=C(C1CC1)N1CCc2ccccc2C12CCNCC2
percent effect: 2.525

structure: CCOC(=O)N1[C@@H](c2ccco2)[C@@H](C(=O)NC)C[C@]12CCCCNC2=O
percent effect: 2.579

structure: O=C(CCCOc1ccc(F)cc1F)N1CCCC(n2cccn2)C1 (configuration not stated)
percent effect: 2.776

The last 4 entries again:

{"structure": "Cc1cc(C(=O)N2CCCC(c3ccc(C(=O)O)cc3)C2)c(C)o1", "stereo": "configuration not stated", "percent effect": -3.051}
{"structure": "O=C(C1CC1)N1CCc2ccccc2C12CCNCC2", "percent effect": 2.525}
{"structure": "CCOC(=O)N1[C@@H](c2ccco2)[C@@H](C(=O)NC)C[C@]12CCCCNC2=O", "percent effect": 2.579}
{"structure": "O=C(CCCOc1ccc(F)cc1F)N1CCCC(n2cccn2)C1", "stereo": "configuration not stated", "percent effect": 2.776}